Test results as given in patent US20190201494A1, “COMPOSITIONS AND METHODS FOR TREATING NICOTINE WITHDRAWAL” (STC UNM, priority 2016, published 2019).

What was measured:
[1] = tested on: overnight abstinent smokers; assay: Blood measurements: insulin, glucose, C-peptide, non-esterified fatty acids (Example 1); type: in vivo, human; conditions: 60 IU intranasal vs placebo
Experimental: Blood measurements: Blood samples were analyzed for measurements of insulin, glucose, C-peptide, and non-esterified fatty acids.
Serum insulin was analyzed on the Immulite 1000 immunoassay system (Siemens Healthcare GmbH, Erlangen, Germany). This is a solid-phase, enzyme-labeled chemiluminescent immunometric assay. The solid phase (bead) was coated with monoclonal murine anti-insulin antibody. The liquid phase consisted of alkaline phosphatase (bovine calf intestine) conjugated to polyclonal sheep anti-insulin antibody and alkaline phosphatase (bovine calf intestine) conjugated to monoclonal murine anti-insulin antibody. The patient sample and the reagent were incubated together with the coated bead for 60 minutes. […]
Serum glucose was performed on the ACE ALERA system (Alfa Wassermann Diagnostic Technologies, S.p.A., Bologna, Italy). An increase in absorbance of NADH is directly proportional to glucose concentration, and was measured bichromatically at 340 nm/378 nm. […]
Blood samples were collected at 12:20, 13:00, 13:40, and 14:10 and analyzed for non-esterified fatty acids using an AU 480 chemistry analyzer (Beckman Coulter, Inc., Brea, Calif.) using a NEFA-HR(2) kit (Wako Chemicals USA, Inc., Cape Charles, Va.). […]

[2] = tested on: overnight abstinent smokers; assay: Cardiovascular measures (blood pressure, heart rate) during Trier Social Stress Test (Example 1); type: in vivo, human
[3] = 60 IU vs placebo, Trier Social Stress Test

Question: Which “C-peptide levels, effect of treatment” value [1] does the source give for “intranasal insulin: bulk human Regular insulin (U100 Novolin R, Novo Nordisk US), 100 IU/ml, six nasal sprays delivering 60 IU” here?
Answer: The value was “did not differ; also recorded: no detection of treatment effect”.

Question: What about the “Non-esterified fatty acids, effect of treatment” value ([1]; increase over time) of the same substance?
Answer: The value was “did not differ; also recorded: occurred for both treatment groups”.

Question: And the “Heart rate, effect of treatment” value [2, 3]?
Answer: Its value is “treatment groups did not differ”.

Question: What about the “Systolic blood pressure, effect of treatment” value [2, 3] of the same substance?
Answer: Its value is “Main effect of treatment was not significant”.

Question: What about the “Diastolic blood pressure, treatment×time interaction” value ([2]; 60 IU vs placebo, Trier Social Stress Test, p≤0.05) of the same substance?
Answer: The value was “The interaction was significant”.

Question: What about the “Diastolic blood pressure, interaction, b” value ([2]; SE(b)=0.27, z=−1.92, p≤0.05) of the same substance?
Answer: The value was −0.52.

Question: And the “Systolic blood pressure, treatment×time interaction, b” value ([2]; SE(b)=0.32, z=−1.46, p=0.14, not significant)?
Answer: Its value is −0.46.

Question: What about the “Heart rate, treatment×time, b” value ([2]; SE(b)=1.03, z=−0.79, p=0.42) of the same substance?
Answer: Its value is −0.81.

Question: And the “Diastolic blood pressure, main effect of treatment, b” value ([2]; SE(b)=2.58, z=1.80, p=0.07, not significant)?
Answer: Its value is 4.64.

Question: What about the “Systolic blood pressure, main effect of treatment, b” value ([2]; SE(b)=4.18, z=1.55, p=o.12) of the same substance?
Answer: The value was 6.48.

Question: What about the “Heart rate, treatment, b” value ([2]; SE(b)=4.23, z=0.00, p=0.99) of the same substance?
Answer: The value was 0.01.

Entries after “also recorded” stand apart in the source; their conditions may differ.
